The target in the test is FLAG–DCNL1 (WT) (human), Q96GG9. As to the kind of experiment: affinity purification with mass spectrometry; FLAG(M2)-magnetic bead immunoprecipitation from lysates of HEK-293 cells stably expressing N-terminally FLAG-tagged DCNLs; eluate trypsin-digested, Orbitrap, MaxQuant; interactors with >3 unique peptides plotted. The following applies: remark: other sources report otherwise.

No constants are given. Whether binding was seen depends on the method and setting. Binding seen in cells or lysates may run through a third protein. Here binding means that the protein was enriched with, or labelled near, the bait; the list need not be complete.

B1: Cul2, Q13617 1-745 (protein)
chain: MSLKPRVVDFDETWNKLLTTIKAVVMLEYVERATWNDRFSDIYALCVAYPEPLGERLYTETKIFLENHVRHLHKRVLESEEQVLVMYHRYWEEYSKGADYMDCLYRYLNTQFIKKNKLTEADLQYGYGGVDMNEPLMEIGELALDMWRKLMVEPLQAILIRMLLREIKNDRGGEDPNQKVIHGVINSFVHVEQYKKKFPLKFYQEIFESPFLTETGEYYKQEASNLLQESNCSQYMEKVLGRLKDEEIRCRKYLHPSSYTKVIHECQQRMVADHLQFLHAECHNIIRQEKKNDMANMYVLLRAVSTGLPHMIQELQNHIHDEGLRATSNLTQENMPTLFVESVLEVHGKFVQLINTVLNGDQHFMSALDKALTSVVNYREPKSVCKAPELLAKYCDNLLKKSAKGMTENEVEDRLTSFITVFKYIDDKDVFQKFYARMLAKRLIHGLSMSMDSEEAMINKLKQACGYEFTSKLHRMYTDMSVSADLNNKFNNFIKNQDTVIDLGISFQIYVLQAGAWPLTQAPSSTFAIPQELEKSVQMFELFYSQHFSGRKLTWLHYLCTGEVKMNYLGKPYVAMVTTYQMAVLLAFNNSETVSYKELQDSTQMNEKELTKTIKSLLDVKMINHDSEKEDIDAESSFSLNMNFSSKRTKFKITTSMQKDTPQEMEQTRSAVDEDRKMYLQAAIVRIMKARKVLRHNALIQEVISQSRARFNPSISMIKKCIEVLIDKQYIERSQASADEYSYVA
Regarding B1, the binding result is given as “binds”.

Source of the values: PMC4886823.
